Values from PubChem BioAssay AID1224831 (NIAID, 2016).
Shown is an unselected part of about 3,500 reagents tested. Over the whole deposit, 731 (21%) were called active. 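Active means either lowered or raised reporter signal; the gene-median score did not drive the per-siRNA calls.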 Entries without a mark were called inactive. The numbers tell different reagents against one gene apart. No sequences are given here.

- Purpose: 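Confirming genome-wide hits on LPS-triggered TNF-alpha induction with independent siRNA sequences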 (follow-up of hits)
- Cell system: human THP-1 B5 monocytic leukaemia cells carrying a TNF promoter luciferase reporter, made macrophage-like with PMA
- Reagent: single siRNA against human genes, 50 nM
- Timing: about 68 h of knock-down, then 4 h LPS
- Treatment: LPS (Salmonella minnesota, TLR-grade) at 10 ng/ml for 4 h; PMA 5 ng/ml present during knock-down
- Measured: 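TNF promoter reporter read as dual luciferase ratio after 4 h LPS, normalised per plate to its median, given as replicate mean robust z-score per siRNA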
- Reading the numbers: TNF reporter z-score: higher = stronger LPS-induced TNF reporter signal; z-score, median over gene's siRNAs: higher = stronger TNF reporter signal across the gene's siRNAs
- Active means: 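Two-sided call: reduced or raised TNF reporter signal counts as active once mean z reaches about -1 or below, or about 1.5 or above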
- Meaning of the calls: active = changed TNF reporter (either direction); inactive = little change

| gene knocked down | reagent | TNF reporter z-score, replicate mean | z-score, median over gene's siRNAs |
| --- | --- | --- | --- |
| CAMK1 (calcium/calmodulin dependent protein kinase I) | 1 | 0.02 | 0.795 |
| CAMK1 (calcium/calmodulin dependent protein kinase I) | 2 | 0.11 | 0.795 |
| CAMK1 (calcium/calmodulin dependent protein kinase I) | 3 | 0.4 | 0.795 |
| CAMK1 (calcium/calmodulin dependent protein kinase I) | 4 | 16.4 (active) | 0.795 |
| CAMK1 (calcium/calmodulin dependent protein kinase I) | 5 | 1.7 (active) | 0.795 |
| CAMK1 (calcium/calmodulin dependent protein kinase I) | 6 | 1.19 | 0.795 |
| ACKR1 (atypical chemokine receptor 1 (Duffy blood group)) | 1 | 0.61 | 0.215 |
| ACKR1 (atypical chemokine receptor 1 (Duffy blood group)) | 2 | 0.18 | 0.215 |
| ACKR1 (atypical chemokine receptor 1 (Duffy blood group)) | 3 | 0.02 | 0.215 |
| ACKR1 (atypical chemokine receptor 1 (Duffy blood group)) | 4 | 0.25 | 0.215 |
| ACKR1 (atypical chemokine receptor 1 (Duffy blood group)) | 5 | -0.94 | 0.215 |
| ACKR1 (atypical chemokine receptor 1 (Duffy blood group)) | 6 | 0.51 | 0.215 |
| RUNX2 (RUNX family transcription factor 2) | 1 | -0.16 | 0.885 |
| RUNX2 (RUNX family transcription factor 2) | 2 | -0.17 | 0.885 |
| RUNX2 (RUNX family transcription factor 2) | 3 | 0.99 | 0.885 |
| RUNX2 (RUNX family transcription factor 2) | 4 | 0.78 | 0.885 |
| RUNX2 (RUNX family transcription factor 2) | 5 | 2.15 (active) | 0.885 |
| RUNX2 (RUNX family transcription factor 2) | 6 | 3.35 (active) | 0.885 |
| LZTS2 (leucine zipper tumor suppressor 2) | 1 | 1.08 | 0.51 |
| LZTS2 (leucine zipper tumor suppressor 2) | 2 | -0.06 | 0.51 |
| LZTS2 (leucine zipper tumor suppressor 2) | 3 | -0.69 | 0.51 |
| LZTS2 (leucine zipper tumor suppressor 2) | 4 | -0.18 | 0.51 |
| LZTS2 (leucine zipper tumor suppressor 2) | 5 | 1.92 (active) | 0.51 |
| LZTS2 (leucine zipper tumor suppressor 2) | 6 | 3.42 (active) | 0.51 |
| TRAF4 (TNF receptor associated factor 4) | 1 | -0.86 | -0.49 |
| TRAF4 (TNF receptor associated factor 4) | 2 | -1.21 (active) | -0.49 |
| TRAF4 (TNF receptor associated factor 4) | 3 | 2.39 (active) | -0.49 |
| TRAF4 (TNF receptor associated factor 4) | 4 | 0.15 | -0.49 |
| TRAF4 (TNF receptor associated factor 4) | 5 | -0.44 | -0.49 |
| TRAF4 (TNF receptor associated factor 4) | 6 | -0.54 | -0.49 |
| GNAI3 (G protein subunit alpha i3) | 1 | -0.34 | -0.32 |
| GNAI3 (G protein subunit alpha i3) | 2 | 0.16 | -0.32 |
| GNAI3 (G protein subunit alpha i3) | 3 | -0.06 | -0.32 |
| GNAI3 (G protein subunit alpha i3) | 4 | -0.3 | -0.32 |
| GNAI3 (G protein subunit alpha i3) | 5 | -0.46 | -0.32 |
| GNAI3 (G protein subunit alpha i3) | 6 | -0.61 | -0.32 |
| NEU3 (neuraminidase 3) | 1 | 0.85 | 0.33 |
| NEU3 (neuraminidase 3) | 2 | -0.45 | 0.33 |
| NEU3 (neuraminidase 3) | 3 | -0.82 | 0.33 |
| NEU3 (neuraminidase 3) | 4 | -0.17 | 0.33 |
| NEU3 (neuraminidase 3) | 5 | 0.83 | 0.33 |
| NEU3 (neuraminidase 3) | 6 | 0.99 | 0.33 |
| OR14I1 (olfactory receptor family 14 subfamily I member 1) | 1 | 0.18 | 0.5 |
| OR14I1 (olfactory receptor family 14 subfamily I member 1) | 2 | 1.1 | 0.5 |
| OR14I1 (olfactory receptor family 14 subfamily I member 1) | 3 | -0.15 | 0.5 |
| OR14I1 (olfactory receptor family 14 subfamily I member 1) | 4 | 0.11 | 0.5 |
| OR14I1 (olfactory receptor family 14 subfamily I member 1) | 5 | 1.01 | 0.5 |
| OR14I1 (olfactory receptor family 14 subfamily I member 1) | 6 | 0.82 | 0.5 |
| ITGB3 (integrin subunit beta 3) | 1 | -0.25 | -0.055 |
| ITGB3 (integrin subunit beta 3) | 2 | -0.34 | -0.055 |
| ITGB3 (integrin subunit beta 3) | 3 | 0.41 | -0.055 |
| ITGB3 (integrin subunit beta 3) | 4 | 0.14 | -0.055 |
| ITGB3 (integrin subunit beta 3) | 5 | 0.83 | -0.055 |
| ITGB3 (integrin subunit beta 3) | 6 | -0.67 | -0.055 |
| BTRC | 1 | -0.55 | -0.46 |
| BTRC | 2 | 0.26 | -0.46 |
| BTRC | 3 | -0.49 | -0.46 |
| BTRC | 4 | -0.43 | -0.46 |
| BTRC | 5 | 0.47 | -0.46 |
| BTRC | 6 | -1.27 (active) | -0.46 |
| FEZ1 (fasciculation and elongation protein zeta 1) | 1 | -0.19 | 0.21 |
| FEZ1 (fasciculation and elongation protein zeta 1) | 2 | 0.08 | 0.21 |
| FEZ1 (fasciculation and elongation protein zeta 1) | 3 | -0.35 | 0.21 |
| FEZ1 (fasciculation and elongation protein zeta 1) | 4 | 0.34 | 0.21 |
| FEZ1 (fasciculation and elongation protein zeta 1) | 5 | 0.53 | 0.21 |
| FEZ1 (fasciculation and elongation protein zeta 1) | 6 | 0.57 | 0.21 |
| RBM39 (RNA binding motif protein 39) | 1 | -0.83 | 0.085 |
| RBM39 (RNA binding motif protein 39) | 2 | -0.98 | 0.085 |
| RBM39 (RNA binding motif protein 39) | 3 | 1.03 | 0.085 |
| RBM39 (RNA binding motif protein 39) | 4 | 1.19 | 0.085 |
| RBM39 (RNA binding motif protein 39) | 5 | -0.89 | 0.085 |
| RBM39 (RNA binding motif protein 39) | 6 | 1 | 0.085 |
| KCTD17 (potassium channel tetramerization domain containing 17) | 1 | 0.66 | -0.115 |
| KCTD17 (potassium channel tetramerization domain containing 17) | 2 | -0.15 | -0.115 |
| KCTD17 (potassium channel tetramerization domain containing 17) | 3 | -0.36 | -0.115 |
| KCTD17 (potassium channel tetramerization domain containing 17) | 4 | -1.64 (active) | -0.115 |
| KCTD17 (potassium channel tetramerization domain containing 17) | 5 | -0.08 | -0.115 |
| KCTD17 (potassium channel tetramerization domain containing 17) | 6 | 0.49 | -0.115 |
| CCDC121 (coiled-coil domain containing 121) | 1 | 0.23 | 0.36 |
| CCDC121 (coiled-coil domain containing 121) | 2 | -0.17 | 0.36 |
| CCDC121 (coiled-coil domain containing 121) | 3 | 1.63 (active) | 0.36 |
| CCDC121 (coiled-coil domain containing 121) | 4 | -0.29 | 0.36 |
| CCDC121 (coiled-coil domain containing 121) | 5 | 0.49 | 0.36 |
| CCDC121 (coiled-coil domain containing 121) | 6 | 1.33 | 0.36 |

Part of the list above, set out differently.
gene knocked down | reagent | TNF reporter z-score, replicate mean | z-score, median over gene's siRNAs
CAMK1 (calcium/calmodulin dependent protein kinase I) | 2 | 0.11 | 0.795
CAMK1 (calcium/calmodulin dependent protein kinase I) | 3 | 0.4 | 0.795
CAMK1 (calcium/calmodulin dependent protein kinase I) | 4 | 16.4 (active) | 0.795
CAMK1 (calcium/calmodulin dependent protein kinase I) | 5 | 1.7 (active) | 0.795
CAMK1 (calcium/calmodulin dependent protein kinase I) | 6 | 1.19 | 0.795
ACKR1 (atypical chemokine receptor 1 (Duffy blood group)) | 1 | 0.61 | 0.215
ACKR1 (atypical chemokine receptor 1 (Duffy blood group)) | 2 | 0.18 | 0.215
ACKR1 (atypical chemokine receptor 1 (Duffy blood group)) | 3 | 0.02 | 0.215
